# Reference: US12409172B2, “Dosage regimen” (UNION therapeutics A/S, priority 2023, dated 2025)
# Experiment: Phase 2b study in psoriasis (Example 3): cardiovascular risk factors, mean change from baseline at Week 16
# Type: in vivo, human
compound,measurement,setting,value
"O=C(Cc1c(Cl)c[n+]([O-])cc1Cl)c1ccc(OC(F)F)c2c1OC1(CCS(=O)(=O)CC1)O2 [orismilast, 2-(3,5-dichloro-1-oxidopyridin-1-ium-4-yl)-1-[7-(difluoromethoxy)-1′,1′-dioxospiro[1,3-benzodioxole-2,4′-thiane]-4-yl]ethanone]","BMI, mean change from baseline Week 16",20 mg BID,−0.9 kg/m^2
same,"C Reactive Protein, mean change from baseline Week 16",20 mg BID,3.4 mmol/L
same,"Cholesterol, mean change from baseline Week 16",20 mg BID,-0.2 mmol/L
same,"Diastolic blood pressure, mean change from baseline Week 16",20 mg BID,−1.6 mmHg
same,"Fasting serum glucose, mean change from baseline Week 16",20 mg BID,-0.2 mmol/L
same,"HDL cholesterol, mean change from baseline Week 16",20 mg BID,0.0 mmol/L
same,"Hip circumference, mean change from baseline Week 16",20 mg BID,−0.9 cm
same,"LDL cholesterol, mean change from baseline Week 16",20 mg BID,-0.1 mmol/L
same,"Systolic blood pressure, mean change from baseline Week 16",20 mg BID,−1.1 mmHg
same,"Triglycerides, mean change from baseline Week 16",20 mg BID,-0.2 mmol/L
same,"Waist circumference, mean change from baseline Week 16",20 mg BID,−3.1 cm
same,"Weight, mean change from baseline Week 16",20 mg BID,-2.6 kg
same,"BMI, mean change from baseline Week 16",30 mg BID,−0.9 kg/m^2
same,"C Reactive Protein, mean change from baseline Week 16",30 mg BID,-33.1 mmol/L
same,"Cholesterol, mean change from baseline Week 16",30 mg BID,0.0 mmol/L
same,"Diastolic blood pressure, mean change from baseline Week 16",30 mg BID,1.3 mmHg
same,"Fasting serum glucose, mean change from baseline Week 16",30 mg BID,-0.2 mmol/L
same,"HDL cholesterol, mean change from baseline Week 16",30 mg BID,0.0 mmol/L
same,"Hip circumference, mean change from baseline Week 16",30 mg BID,−2.8 cm
same,"LDL cholesterol, mean change from baseline Week 16",30 mg BID,0.0 mmol/L
same,"Systolic blood pressure, mean change from baseline Week 16",30 mg BID,2.1 mmHg
same,"Triglycerides, mean change from baseline Week 16",30 mg BID,-0.1 mmol/L
same,"Waist circumference, mean change from baseline Week 16",30 mg BID,−1.0 cm
same,"Weight, mean change from baseline Week 16",30 mg BID,-2.8 kg
same,"BMI, mean change from baseline Week 16",40 mg BID,−1.0 kg/m^2
same,"C Reactive Protein, mean change from baseline Week 16",40 mg BID,-27.2 mmol/L
same,"Cholesterol, mean change from baseline Week 16",40 mg BID,-0.1 mmol/L
same,"Diastolic blood pressure, mean change from baseline Week 16",40 mg BID,1.0 mmHg
same,"Fasting serum glucose, mean change from baseline Week 16",40 mg BID,-0.1 mmol/L
same,"HDL cholesterol, mean change from baseline Week 16",40 mg BID,0.0 mmol/L
same,"Hip circumference, mean change from baseline Week 16",40 mg BID,−3.4 cm
same,"LDL cholesterol, mean change from baseline Week 16",40 mg BID,-0.2 mmol/L
same,"Systolic blood pressure, mean change from baseline Week 16",40 mg BID,1.5 mmHg
same,"Triglycerides, mean change from baseline Week 16",40 mg BID,0.2 mmol/L
same,"Waist circumference, mean change from baseline Week 16",40 mg BID,−1.9 cm
same,"Weight, mean change from baseline Week 16",40 mg BID,-3.1 kg
